{"source": "PubChem BioAssay AID1745850", "about": "(National Center for Advancing Translational Sciences (NCATS), 2022)", "note": "Screen size: about 2,100 compounds; about 260 (12%) were called active. Inconclusive results, whose numbers are uncertain, are shown with a selection of clear calls. Calls follow the shape of the dose curve; as a rule, active = well fitted cell-killing curve with a large enough effect; inconclusive = small, poorly fitted or top-dose-only effect, or effect the other way; inactive = flat fitted curve, though single readings scatter. A potency beside an inconclusive call is a rough fit, not a confirmed value. Potency is read from the fitted curve at half-maximal effect.", "data": [{"assay": "Viability Counterscreen for Confirmatory qHTS for Inhibitors of ATXN expression; also: nearly all actives have a fitted effect of over 50% in size", "conditions": "HEK-293 ATXN2-luc cells viability, CellTiter-Fluor, 24 h", "in_short": "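Cells with an ATXN2-luciferase reporter were dosed in a dilution series for 24 h at 37 degrees C. Viability was read first with Gly-Phe-AFC at 25 uM final (fluorescence, ex 405/em 540), then SteadyGlo luminescence. Medium-only wells defined 100% inhibition.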", "values": [{"smiles": "O=C(NCCc1cn2ccccc2n1)c1cc(COc2ccc3ncccc3c2)on1", "Potency": "inconclusive: 39.8 µM [cytotoxic, single point]"}, {"smiles": "COc1ccc(C)cc1NC(=O)COC(=O)c1c(C)nn(-c2ccccc2)c1C", "Potency": "inconclusive: 28.2 µM [cytotoxic, partial curve, poor fit]"}, {"smiles": "CN(C)c1ccc(C(=O)N/N=C/c2cc(Br)cc(Br)c2O)cc1", "Potency": "inactive"}, {"smiles": "CC(Oc1ccc(Br)cc1)C(=O)Nc1nc(-c2ccccn2)cs1", "note": "(centres undefined)", "Potency": "inconclusive: 3.98 µM [cytotoxic, single point]"}, {"smiles": "Cc1cc(C)nc(/N=C(\\N)Nc2ccc(OCc3ccccc3)cc2)n1", "Potency": "inconclusive: 39.8 µM [cytotoxic, single point]"}, {"smiles": "O=C1N/C(=N/N=C/c2ccccc2O)SC1Cc1ccc(F)cc1", "note": "(centres undefined)", "Potency": "inconclusive: 22.4 µM [cytotoxic, partial curve]"}, {"smiles": "Cc1cc(C)c(O)c(CN(C)Cc2cc(Cl)cc(Cl)c2O)c1", "Potency": "inconclusive: 28.2 µM [cytotoxic, single point]"}, {"smiles": "Cc1cc(O)c(C(C)C)cc1N=Cc1ccccc1[N+](=O)[O-]", "Potency": "inactive"}, {"smiles": "Cc1cc2nc(-c3nnnn3Cc3ccccc3)c(=O)[nH]c2cc1C", "Potency": "inconclusive: 4.47 µM [rising, partial curve]"}, {"smiles": "CCc1cc2c(N3CCN(c4nnc(CC)s4)CC3)ncnc2s1", "Potency": "inconclusive: 3.55 µM [cytotoxic, single point]"}, {"smiles": "CCC(=O)NC(C)c1cc(Cl)c2cccnc2c1O", "note": "(centres undefined)", "Potency": "inconclusive: 3.16 µM [cytotoxic, single point]"}, {"smiles": "CC(=O)Nc1cccc(-c2ccnc3c2CC(C)(C(=O)Nc2ccc(Cl)c(C(F)(F)F)c2)O3)c1", "note": "(centres undefined)", "Potency": "inconclusive: 35.5 µM [cytotoxic, single point]"}, {"smiles": "CC(=O)Nc1cc(-c2ccc(C(=O)NC3CC3)cc2)cn2c(-c3cccc(C(C)=O)c3)cnc12", "Potency": "inactive"}, {"smiles": "O=C(CSc1nc2ncc(Cl)cc2[nH]1)Nc1cccc(F)c1", "Potency": "inactive"}, {"smiles": "CC(C)Nc1nc(NCCOc2ccccc2)c2sccc2n1", "Potency": "inconclusive: 28.2 µM [cytotoxic, single point]"}, {"smiles": "CCc1cc2c(=O)c(-c3cnn(-c4ccccc4)c3)coc2c(CN2CCOCC2)c1O", "Potency": "inactive"}, {"smiles": "COC(=O)c1cc(NC(=O)c2cc(-c3ccc(C(F)(F)F)cc3)oc2C(F)(F)F)ccc1N1CCOCC1", "Potency": "inconclusive: 31.6 µM [cytotoxic, single point]"}, {"smiles": "COc1ccc(C(=O)NC(=S)NNC(=O)c2cnccn2)cc1", "Potency": "inactive"}, {"smiles": "O=[N+]([O-])c1cc(Cl)c(O)c2ncccc12", "Potency": "active: 11.2 µM"}, {"smiles": "Nc1cc2c3c(cccc3c1)C(=O)N(CCN1CCCC1)C2=O", "Potency": "active: 22.4 µM"}, {"smiles": "CC1CC2(C)Oc3ccccc3CC2C(C)C1CNCCCN(C)C", "note": "(centres undefined)", "Potency": "active: 25.1 µM"}, {"smiles": "COc1cccc2c1C(=O)c1c(O)c3c(c(O)c1C2=O)C[C@](O)(C(C)=O)C[C@H]3O[C@@H]1C[C@@H](N)[C@@H](O)[C@@H](C)O1", "Potency": "inconclusive: 4.47 µM [cytotoxic, partial curve, poor fit]"}, {"smiles": "COc1ccc(CNC(=O)Nc2nc(C(N)Cc3ccc(C(F)(F)F)cc3)cs2)cc1", "note": "(centres undefined)", "Potency": "inconclusive: 39.8 µM [cytotoxic, single point]"}, {"smiles": "CN(CC(=O)Nc1ccc(Cl)cc1)C(=O)c1ccc(S(=O)(=O)Nc2ccccc2)cc1", "Potency": "inconclusive: 39.8 µM [cytotoxic, single point]"}, {"smiles": "COc1cccc(OCC(=O)Nc2cc(Cl)ccc2Oc2ccccc2)c1", "Potency": "inactive"}, {"smiles": "Cc1[nH]c2ccccc2c1SCc1nnc(SCc2ccc(Cl)cc2)n1C", "Potency": "inconclusive: 39.8 µM [cytotoxic, single point]"}, {"smiles": "O=C(O)CCn1cc(/C=C/C(=O)c2ccc(Cl)cc2)c(-c2ccc(Br)cc2)n1", "Potency": "inconclusive: 39.8 µM [cytotoxic, single point]"}, {"smiles": "COc1ccc(/C=N/NC(=O)c2cccc([N+](=O)[O-])c2)c2ccccc12", "Potency": "inconclusive: 3.98 µM [cytotoxic, single point]"}, {"smiles": "COc1cccc(NC(=S)/C(=C(\\[O-])c2cc(C)n(-c3ccccc3F)c2C)[n+]2ccc(N(C)C)cc2)c1", "Potency": "inconclusive: 39.8 µM [cytotoxic, single point]"}, {"smiles": "Cn1nccc1C(=O)N1CCCC(C(=O)c2cccc3ccccc23)C1", "note": "(centres undefined)", "Potency": "inactive"}, {"smiles": "CCOC(=O)c1c(-c2ccccc2)oc2cc(CN(C)C)c(O)c(CN(C)C)c12", "Potency": "inconclusive: 11.2 µM [cytotoxic, partial curve]"}, {"smiles": "CCN1CCN(c2ccc(Cl)cc2NC(=O)c2ccc(-n3nc(C)cc3C)cc2)CC1", "Potency": "inconclusive: 25.1 µM [cytotoxic, single point]"}, {"smiles": "COc1ccc(C(CCNC(C)c2ccccc2)c2ccc(F)cc2)cc1", "note": "(centres undefined)", "Potency": "inconclusive: 39.8 µM [cytotoxic, single point]"}, {"smiles": "CCOC(=O)C(NS(=O)(=O)c1ccc(C)cc1)(C(F)(F)F)P(=O)(OCC(C)C)OCC(C)C", "note": "(centres undefined)", "Potency": "inactive"}, {"smiles": "CN(C)C(CNC(=O)c1cccc(S(=O)(=O)N2CCN(c3ccc(F)cc3)CC2)c1)c1ccccc1", "note": "(centres undefined)", "Potency": "inconclusive: 39.8 µM [cytotoxic, single point]"}, {"smiles": "O=C(Nc1ccc(N2CCN(C(=O)c3cccs3)CC2)c(Cl)c1)c1cccnc1", "Potency": "inconclusive: 39.8 µM [cytotoxic, single point]"}, {"smiles": "CCN(CC)S(=O)(=O)c1ccc(N/N=C/c2cc(OC)ccc2O)nc1", "Potency": "inactive"}, {"smiles": "O=C(CN1c2cccc3cccc(c23)S1(=O)=O)NCc1ccc(Cl)cc1", "Potency": "inactive"}, {"smiles": "CCOC(=O)c1c(NC(=O)COC(=O)c2ccccc2NC)sc(C(=O)N(C)C)c1C", "Potency": "inactive"}, {"smiles": "COc1cccc(NC(=O)CSc2nc3ncc(Br)cc3[nH]2)c1", "Potency": "inactive"}, {"smiles": "CCCC(=O)NC(c1ccc(OC)cc1)c1ccc2cccnc2c1O", "note": "(centres undefined)", "Potency": "inconclusive: 7.94 µM [cytotoxic, full curve]"}, {"smiles": "Cc1c(C(=O)Nc2nonc2-c2ccc(F)cc2)oc2ccc(F)cc12", "Potency": "inconclusive: 39.8 µM [cytotoxic, single point]"}, {"smiles": "O=C(Nc1ccc(Br)cc1)c1cccc(OC(=S)N2CCOCC2)c1", "Potency": "inactive"}, {"smiles": "Cc1ccnc(NC(=O)CCCc2c[nH]c3ccccc23)c1", "Potency": "inactive"}]}]}
